Results taken from patent US20090148510A1.
These are yes or no findings as the source states them, for the method shown. Some results given as binding are weak or reduced against the parent protein; the word gives no strength.

Assays:
[1] = biological target: N-terminally FLAG-tagged β2AR stably expressed in HEK-293 cells (UniProt P07550); assay: immunofluorescence on permeabilized HEK-293 cells expressing FLAG-tagged β2AR
[2] = biological target: N-terminally FLAG-tagged β2AR stably expressed in HEK-293 cells (UniProt P07550); assay: immunofluorescence on fixed or fixed and permeabilized HEK-293 cells expressing FLAG-tagged β2AR
[3] = biological target: N-terminally FLAG-tagged β2AR stably expressed in HEK-293 cells (UniProt P07550); assay: immunofluorescence on fixed HEK-293 cells expressing FLAG-tagged β2AR
[4] = biological target: β2AR labeled at C265 with tetramethylrhodamine (UniProt P07550); assay: antibody dose-response on fluorescence of β2AR labeled at C265 with tetramethylrhodamine
[5] = biological target: N-terminally FLAG-tagged β2AR stably expressed in HEK-293 cells (UniProt P07550); assay: immunofluorescence on fixed, permeabilized HEK-293 cells expressing flag tagged β2AR
[6] = biological target: β2AR24/365 (UniProt P07550); assay: X-ray data from crystals of the complex
[7] = biological target: β2AR365 (UniProt P07550); assay: crystal structure of the β2AR-Fab complex
[8] = biological target: β2AR365 (UniProt P07550); assay: complex purified by size exclusion chromatography
[9] = biological target: β2AR365 (UniProt P07550); assay: X-ray crystal structure of the β2AR365-Fab5 complex
[10] = biological target: β2AR labeled at C265 with tetramethylrhodamine (UniProt P07550); assay: complex isolated by size exclusion chromatography and crystallized

| binding [1] | binding [2] | binding [3] | binding [4] | binding [5] | binding [6] | binding [7] | binding [8] | binding [9] | binding [10] | Binder |
| --- | --- | --- | --- | --- | --- | --- | --- | --- | --- | --- |
| binds | binds | binds | binds | binds | – | – | – | – | – | antibody 5 (intact mouse monoclonal antibody) (antibody, V domains shown) VH: EVQLQQSGAELARPGASVKLSCKASGYIFTDYYINWVRQRTGQGFEWIGEIYPGSGNIDYNERFKDKATLTADKSSSTAYMQLSSLTSEDSAVYFCVRGFGYWGQGTTLTVSS VL: DIKMTQSPSSMYASLGERVTITCKASQDINSYLSWFQQKPGKSPKTLIYRANRLVDGVPSRFIGTGSGQDYSLTISSLDYEDMGIYYCLQYDEFPYTFGGGTKLEIKR |
| – | – | – | – | – | binds | binds | binds | binds | binds | Fab 5 (Fab fragment of antibody 5) (Fab, V domains shown) VH: EVQLQQSGAELARPGASVKLSCKASGYIFTDYYINWVRQRTGQGFEWIGEIYPGSGNIDYNERFKDKATLTADKSSSTAYMQLSSLTSEDSAVYFCVRGFGYWGQGTTLTVSS VL: DIKMTQSPSSMYASLGERVTITCKASQDINSYLSWFQQKPGKSPKTLIYRANRLVDGVPSRFIGTGSGQDYSLTISSLDYEDMGIYYCLQYDEFPYTFGGGTKLEIKR |
